This data set deals with AF647-p53 (p53-SNAP labeled with AF647) (human) (UniProt P04637). The data set can be described thus: EMSA. To be noted: apparent affinity decreased slightly, same mobility as wild type complex; EMSA: 25 mM HEPES pH 7.9, 50 mM KCl, 2.5 mM MgCl2, 1 mM EDTA, 10% glycerol, 0.1% NP-40, 1 mM DTT, 0.05 mg/mL BSA, room temp 30 min; recombinant protein; residues 1-393; label: 5' 32P on reverse strand. For orientation: Mobility shift assays separate free from complexed probe on a gel.

A weaker result is weaker than the reference pair of the same experiment.

These results are taken from paper PMC7528078.

“TAGAGCGAACATGTCTGCGTCG (double strand) [deleted half site DNA (EMSA)]”: the binding result is “binds more weakly”.
